This passage reports binding results from article PMC5129993, “Everolimus induces Met inactivation by disrupting the FKBP12/Met complex” (Oncotarget, 2016).

Protein sequences, listed by entry. Tags and fused reporters are not part of them. Residues count along the entry.
UniProt P08581, residues 25-1390: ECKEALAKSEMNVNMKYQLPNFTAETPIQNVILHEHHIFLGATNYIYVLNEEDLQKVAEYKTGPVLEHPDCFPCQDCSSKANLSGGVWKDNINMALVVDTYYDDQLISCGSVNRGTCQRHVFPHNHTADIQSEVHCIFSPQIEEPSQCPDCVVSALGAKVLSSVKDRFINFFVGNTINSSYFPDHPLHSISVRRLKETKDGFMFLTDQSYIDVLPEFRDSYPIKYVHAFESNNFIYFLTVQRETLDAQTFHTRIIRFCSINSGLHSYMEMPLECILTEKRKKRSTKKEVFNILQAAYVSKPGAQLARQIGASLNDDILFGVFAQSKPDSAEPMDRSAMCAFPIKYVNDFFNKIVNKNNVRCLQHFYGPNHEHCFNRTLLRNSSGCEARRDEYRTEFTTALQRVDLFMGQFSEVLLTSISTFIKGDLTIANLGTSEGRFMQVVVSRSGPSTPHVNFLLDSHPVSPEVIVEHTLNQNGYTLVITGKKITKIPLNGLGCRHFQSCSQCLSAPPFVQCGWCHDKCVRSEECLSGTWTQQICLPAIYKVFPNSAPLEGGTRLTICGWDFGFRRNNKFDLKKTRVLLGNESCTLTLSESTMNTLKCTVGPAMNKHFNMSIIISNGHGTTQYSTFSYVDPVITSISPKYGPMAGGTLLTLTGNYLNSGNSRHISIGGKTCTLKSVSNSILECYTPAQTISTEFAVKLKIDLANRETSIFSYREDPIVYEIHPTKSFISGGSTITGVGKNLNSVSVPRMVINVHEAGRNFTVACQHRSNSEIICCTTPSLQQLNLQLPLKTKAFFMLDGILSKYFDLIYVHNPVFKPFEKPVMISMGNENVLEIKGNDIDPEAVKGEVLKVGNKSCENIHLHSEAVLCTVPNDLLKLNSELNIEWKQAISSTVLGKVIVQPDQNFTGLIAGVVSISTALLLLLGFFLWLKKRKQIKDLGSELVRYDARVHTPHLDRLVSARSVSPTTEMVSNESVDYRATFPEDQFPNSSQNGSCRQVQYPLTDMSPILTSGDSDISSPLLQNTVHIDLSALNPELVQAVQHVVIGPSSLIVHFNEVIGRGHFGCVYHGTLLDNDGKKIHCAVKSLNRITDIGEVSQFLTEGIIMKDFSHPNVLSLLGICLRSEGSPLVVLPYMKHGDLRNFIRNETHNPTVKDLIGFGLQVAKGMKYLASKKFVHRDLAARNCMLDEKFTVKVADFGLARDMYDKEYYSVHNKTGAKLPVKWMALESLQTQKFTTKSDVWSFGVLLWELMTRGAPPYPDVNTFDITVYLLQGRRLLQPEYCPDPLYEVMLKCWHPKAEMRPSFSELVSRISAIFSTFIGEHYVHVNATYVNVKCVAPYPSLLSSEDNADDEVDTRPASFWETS

The target in this assay is Met receptor tyrosine kinase (receptor for hepatocyte growth factor) (human (endogenous in 786-O, 786-O EveR and HCT116)) (UniProt P08581). As to the kind of experiment: co-IP; total cell lysates of 786-O, 786-O EveR and HCT116 cells, in complete medium or treated 24 h with everolimus (0.5 uM); immunoprecipitated with anti-Met antibody, blotted with anti-Met and anti-FKBP12; normal IgG as negative control.

These are yes or no findings as the source states them, for the method shown. In cells and extracts the contact can be indirect. Some results given as binding are weak or reduced against the parent protein; the word gives no strength.

As for “FK506/rapamycin binding protein 12 (FKBP12) (from UniProt P62942 1-108)”, the binding entry was “binds”.
